Assay results from the supplement of paper PMC10849652.
This is one part of the list.

By UniProt entry, the sequences of proteins in these tests, tags left out. Where a name states a change or a piece, a line headed by the entry shows the natural chain unless it says otherwise.
UniProt Q9NVA4: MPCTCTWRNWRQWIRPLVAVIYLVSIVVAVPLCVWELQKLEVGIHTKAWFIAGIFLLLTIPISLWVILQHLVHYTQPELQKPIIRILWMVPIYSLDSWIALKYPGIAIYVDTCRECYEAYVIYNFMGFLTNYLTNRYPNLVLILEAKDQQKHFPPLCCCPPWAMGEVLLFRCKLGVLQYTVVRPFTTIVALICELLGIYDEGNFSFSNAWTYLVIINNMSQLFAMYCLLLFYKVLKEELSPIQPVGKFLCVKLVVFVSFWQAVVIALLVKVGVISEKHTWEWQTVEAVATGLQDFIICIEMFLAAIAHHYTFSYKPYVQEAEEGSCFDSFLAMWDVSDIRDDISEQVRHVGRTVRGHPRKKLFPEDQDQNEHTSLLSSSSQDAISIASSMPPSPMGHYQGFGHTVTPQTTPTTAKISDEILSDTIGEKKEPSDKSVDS
UniProt Q9BXJ8: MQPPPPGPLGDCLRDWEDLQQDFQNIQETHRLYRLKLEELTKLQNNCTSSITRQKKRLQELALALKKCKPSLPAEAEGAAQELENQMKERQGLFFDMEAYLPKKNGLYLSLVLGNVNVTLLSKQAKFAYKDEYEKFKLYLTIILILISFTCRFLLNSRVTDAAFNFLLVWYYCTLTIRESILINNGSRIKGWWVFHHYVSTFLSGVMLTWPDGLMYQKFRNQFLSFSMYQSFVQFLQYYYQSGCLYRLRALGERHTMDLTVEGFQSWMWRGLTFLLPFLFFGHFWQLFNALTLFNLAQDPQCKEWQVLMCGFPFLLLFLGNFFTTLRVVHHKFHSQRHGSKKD
UniProt Q9H061: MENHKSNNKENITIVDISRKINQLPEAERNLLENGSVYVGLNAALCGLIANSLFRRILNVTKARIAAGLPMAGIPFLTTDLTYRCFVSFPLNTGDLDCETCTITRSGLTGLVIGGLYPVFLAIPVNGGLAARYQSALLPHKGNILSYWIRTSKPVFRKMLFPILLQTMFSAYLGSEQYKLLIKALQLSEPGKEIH
UniProt Q71RG4: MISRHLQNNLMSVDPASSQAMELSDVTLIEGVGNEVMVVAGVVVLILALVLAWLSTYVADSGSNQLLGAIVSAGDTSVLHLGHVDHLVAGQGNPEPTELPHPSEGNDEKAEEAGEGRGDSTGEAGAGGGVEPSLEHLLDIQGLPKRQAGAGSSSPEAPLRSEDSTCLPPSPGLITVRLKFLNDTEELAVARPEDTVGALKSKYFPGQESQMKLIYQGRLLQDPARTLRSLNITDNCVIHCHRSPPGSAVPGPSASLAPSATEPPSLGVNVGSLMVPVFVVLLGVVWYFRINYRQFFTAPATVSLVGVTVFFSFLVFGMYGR
UniProt P49755: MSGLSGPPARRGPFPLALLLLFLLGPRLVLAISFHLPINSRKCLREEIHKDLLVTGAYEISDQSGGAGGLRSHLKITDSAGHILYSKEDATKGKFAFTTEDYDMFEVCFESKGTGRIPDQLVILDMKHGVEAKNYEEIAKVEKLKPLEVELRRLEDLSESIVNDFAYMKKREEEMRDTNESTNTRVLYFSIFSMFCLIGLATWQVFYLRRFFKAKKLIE
UniProt A0PJW6: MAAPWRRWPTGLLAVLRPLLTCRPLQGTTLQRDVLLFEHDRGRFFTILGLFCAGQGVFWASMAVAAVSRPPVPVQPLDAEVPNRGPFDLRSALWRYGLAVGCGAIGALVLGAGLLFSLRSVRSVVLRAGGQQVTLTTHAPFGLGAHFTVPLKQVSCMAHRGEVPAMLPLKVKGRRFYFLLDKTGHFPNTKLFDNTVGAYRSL
UniProt P63313: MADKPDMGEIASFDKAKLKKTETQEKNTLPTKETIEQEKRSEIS
UniProt Q9Y320, whole entry, looked up: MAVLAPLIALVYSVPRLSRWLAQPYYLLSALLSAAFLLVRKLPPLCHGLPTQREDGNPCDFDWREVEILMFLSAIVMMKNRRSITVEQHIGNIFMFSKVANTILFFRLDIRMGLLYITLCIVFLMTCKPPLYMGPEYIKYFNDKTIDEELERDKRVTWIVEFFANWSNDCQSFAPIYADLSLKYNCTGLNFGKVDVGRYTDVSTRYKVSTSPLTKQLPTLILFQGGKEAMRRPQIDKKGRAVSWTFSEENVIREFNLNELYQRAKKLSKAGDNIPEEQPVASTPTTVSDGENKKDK
UniProt Q9NWH2: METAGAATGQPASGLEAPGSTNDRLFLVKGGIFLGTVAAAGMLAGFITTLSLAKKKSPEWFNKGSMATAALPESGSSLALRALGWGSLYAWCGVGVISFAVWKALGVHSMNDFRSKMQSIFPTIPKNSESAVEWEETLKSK
UniProt Q969X1: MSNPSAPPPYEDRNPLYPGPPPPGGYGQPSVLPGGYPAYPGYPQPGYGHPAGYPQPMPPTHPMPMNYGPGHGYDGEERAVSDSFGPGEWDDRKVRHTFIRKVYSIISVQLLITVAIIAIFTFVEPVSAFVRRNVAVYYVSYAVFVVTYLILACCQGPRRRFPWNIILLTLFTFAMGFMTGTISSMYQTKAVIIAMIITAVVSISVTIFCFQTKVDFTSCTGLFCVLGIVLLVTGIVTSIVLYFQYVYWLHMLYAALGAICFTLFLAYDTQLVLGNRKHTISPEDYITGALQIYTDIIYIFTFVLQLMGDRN
UniProt Q9BTV4: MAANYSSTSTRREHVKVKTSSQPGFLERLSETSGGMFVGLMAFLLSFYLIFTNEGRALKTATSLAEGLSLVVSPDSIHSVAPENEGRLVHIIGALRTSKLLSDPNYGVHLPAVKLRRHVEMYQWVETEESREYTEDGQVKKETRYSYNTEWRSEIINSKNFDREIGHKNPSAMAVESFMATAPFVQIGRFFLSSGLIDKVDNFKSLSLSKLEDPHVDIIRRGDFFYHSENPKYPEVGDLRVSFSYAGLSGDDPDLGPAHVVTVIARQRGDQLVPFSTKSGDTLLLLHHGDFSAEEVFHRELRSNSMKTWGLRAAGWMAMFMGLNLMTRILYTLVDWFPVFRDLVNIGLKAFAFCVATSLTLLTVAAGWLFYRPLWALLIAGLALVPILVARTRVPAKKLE
UniProt Q8IY95: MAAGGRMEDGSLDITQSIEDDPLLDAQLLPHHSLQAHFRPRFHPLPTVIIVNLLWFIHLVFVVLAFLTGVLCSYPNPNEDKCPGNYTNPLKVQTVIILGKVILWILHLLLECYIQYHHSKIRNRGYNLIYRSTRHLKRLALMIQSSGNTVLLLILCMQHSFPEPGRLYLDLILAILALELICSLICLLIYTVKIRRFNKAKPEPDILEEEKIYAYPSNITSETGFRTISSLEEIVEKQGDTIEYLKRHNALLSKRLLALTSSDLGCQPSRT
UniProt Q5U3C3: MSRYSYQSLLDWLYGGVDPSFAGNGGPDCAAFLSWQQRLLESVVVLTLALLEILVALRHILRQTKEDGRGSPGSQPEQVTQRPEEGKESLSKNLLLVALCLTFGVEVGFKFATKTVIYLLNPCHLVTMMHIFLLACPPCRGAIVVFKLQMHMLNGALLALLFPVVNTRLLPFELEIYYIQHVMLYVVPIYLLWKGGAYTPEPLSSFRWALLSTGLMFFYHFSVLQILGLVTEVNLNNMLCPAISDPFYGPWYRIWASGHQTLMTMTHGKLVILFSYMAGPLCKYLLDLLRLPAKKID
UniProt Q8TBQ9: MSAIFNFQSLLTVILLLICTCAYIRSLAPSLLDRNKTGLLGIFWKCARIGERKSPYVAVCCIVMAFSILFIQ
UniProt O94876, whole entry, looked up: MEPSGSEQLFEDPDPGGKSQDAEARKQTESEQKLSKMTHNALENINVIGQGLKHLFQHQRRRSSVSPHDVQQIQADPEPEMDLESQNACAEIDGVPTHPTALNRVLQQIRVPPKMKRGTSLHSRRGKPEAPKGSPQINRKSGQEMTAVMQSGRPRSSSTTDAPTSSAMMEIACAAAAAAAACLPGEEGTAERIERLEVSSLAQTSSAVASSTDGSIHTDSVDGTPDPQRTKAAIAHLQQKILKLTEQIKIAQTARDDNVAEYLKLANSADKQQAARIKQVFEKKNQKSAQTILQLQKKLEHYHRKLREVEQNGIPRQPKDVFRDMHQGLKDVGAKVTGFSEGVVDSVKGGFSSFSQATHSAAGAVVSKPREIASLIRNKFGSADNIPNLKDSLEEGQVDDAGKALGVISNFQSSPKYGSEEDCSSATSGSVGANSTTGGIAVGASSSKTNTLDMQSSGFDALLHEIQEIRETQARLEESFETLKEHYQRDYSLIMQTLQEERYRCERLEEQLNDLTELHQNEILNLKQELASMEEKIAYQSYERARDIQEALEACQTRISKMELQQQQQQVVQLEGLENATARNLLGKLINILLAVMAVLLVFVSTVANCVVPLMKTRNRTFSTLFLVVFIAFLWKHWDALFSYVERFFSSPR
UniProt Q9NV96: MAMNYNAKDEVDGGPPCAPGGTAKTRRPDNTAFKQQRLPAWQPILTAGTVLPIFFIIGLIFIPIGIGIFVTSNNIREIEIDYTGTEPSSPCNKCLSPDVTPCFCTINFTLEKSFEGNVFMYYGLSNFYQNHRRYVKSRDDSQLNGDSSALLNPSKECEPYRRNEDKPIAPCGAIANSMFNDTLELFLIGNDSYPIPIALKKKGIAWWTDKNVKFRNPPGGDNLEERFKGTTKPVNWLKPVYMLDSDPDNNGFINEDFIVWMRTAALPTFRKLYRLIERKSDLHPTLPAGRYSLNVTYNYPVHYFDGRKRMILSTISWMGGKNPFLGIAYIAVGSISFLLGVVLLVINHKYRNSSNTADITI
UniProt Q96MH6: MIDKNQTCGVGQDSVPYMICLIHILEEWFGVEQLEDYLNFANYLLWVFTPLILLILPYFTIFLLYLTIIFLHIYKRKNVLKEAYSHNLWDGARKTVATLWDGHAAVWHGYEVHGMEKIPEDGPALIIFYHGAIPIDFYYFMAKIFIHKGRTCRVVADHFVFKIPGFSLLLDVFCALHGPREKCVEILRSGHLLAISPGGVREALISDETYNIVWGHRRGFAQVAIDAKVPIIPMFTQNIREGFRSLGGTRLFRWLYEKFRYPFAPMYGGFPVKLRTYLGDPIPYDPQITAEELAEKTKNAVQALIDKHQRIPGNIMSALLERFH
UniProt Q8N511: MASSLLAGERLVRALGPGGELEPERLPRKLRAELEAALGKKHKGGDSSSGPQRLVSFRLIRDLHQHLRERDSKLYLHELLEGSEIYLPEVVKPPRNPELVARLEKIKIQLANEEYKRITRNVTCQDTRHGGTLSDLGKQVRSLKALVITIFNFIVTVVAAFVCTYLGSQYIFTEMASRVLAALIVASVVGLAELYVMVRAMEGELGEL
UniProt Q8N131: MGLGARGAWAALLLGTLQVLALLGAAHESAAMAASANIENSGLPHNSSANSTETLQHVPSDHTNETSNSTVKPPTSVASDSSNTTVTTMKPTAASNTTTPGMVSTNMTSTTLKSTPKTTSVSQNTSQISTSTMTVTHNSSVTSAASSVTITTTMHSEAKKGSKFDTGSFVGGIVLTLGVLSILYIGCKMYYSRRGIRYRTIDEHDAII
UniProt Q86XT9, whole entry, looked up: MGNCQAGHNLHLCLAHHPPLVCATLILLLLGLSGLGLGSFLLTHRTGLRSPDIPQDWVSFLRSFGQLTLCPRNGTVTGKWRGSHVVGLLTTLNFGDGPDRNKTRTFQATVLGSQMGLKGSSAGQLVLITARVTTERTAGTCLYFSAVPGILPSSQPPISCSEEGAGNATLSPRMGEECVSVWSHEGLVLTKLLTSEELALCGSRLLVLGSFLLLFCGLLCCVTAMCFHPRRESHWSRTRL
UniProt Q96I45: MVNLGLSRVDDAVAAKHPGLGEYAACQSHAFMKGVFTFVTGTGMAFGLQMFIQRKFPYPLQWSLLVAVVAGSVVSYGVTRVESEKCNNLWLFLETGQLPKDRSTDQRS
UniProt Q9P0T7: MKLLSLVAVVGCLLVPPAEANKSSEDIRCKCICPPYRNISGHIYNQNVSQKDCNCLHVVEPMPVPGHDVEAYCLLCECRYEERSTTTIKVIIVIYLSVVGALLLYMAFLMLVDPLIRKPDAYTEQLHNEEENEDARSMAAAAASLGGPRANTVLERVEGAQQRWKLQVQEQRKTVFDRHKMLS
UniProt Q96Q45: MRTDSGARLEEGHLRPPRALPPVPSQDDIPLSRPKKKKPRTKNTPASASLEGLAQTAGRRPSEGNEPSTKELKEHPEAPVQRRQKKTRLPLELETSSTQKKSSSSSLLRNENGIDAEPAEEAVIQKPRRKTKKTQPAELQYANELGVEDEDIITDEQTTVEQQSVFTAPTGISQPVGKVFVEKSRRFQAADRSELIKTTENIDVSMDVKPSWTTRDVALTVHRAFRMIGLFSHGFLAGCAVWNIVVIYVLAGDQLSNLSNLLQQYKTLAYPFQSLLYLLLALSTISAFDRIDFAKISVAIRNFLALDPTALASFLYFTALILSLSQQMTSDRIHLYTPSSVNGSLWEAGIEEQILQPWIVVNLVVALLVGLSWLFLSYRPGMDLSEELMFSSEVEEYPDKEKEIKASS
UniProt Q9BVT8: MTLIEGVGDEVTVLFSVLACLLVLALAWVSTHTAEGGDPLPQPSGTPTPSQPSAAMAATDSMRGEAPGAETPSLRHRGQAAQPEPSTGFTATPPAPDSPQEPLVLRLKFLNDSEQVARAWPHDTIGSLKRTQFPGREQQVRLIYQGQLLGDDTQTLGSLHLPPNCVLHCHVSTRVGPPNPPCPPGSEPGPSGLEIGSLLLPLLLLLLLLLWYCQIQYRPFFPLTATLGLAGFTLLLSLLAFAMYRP

Key:
Experiment in all cases: log2 fold change, soluble protein after heating vs DMSO (PISA); higher = thermal stabilisation; K562 cells, 10 uM, 30 min; active = over 0.2 and 3.5 SD of the protein, either way, in both replicates (recomputed)
[1] = compound: NC(=O)Nc1cc(-c2cccc(F)c2)sc1C(=O)N[C@H]1CCCNC1
In short: (§1)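 Soluble protein was defined as the supernatant after 21,000xg for 90 min. It came from K562 cells at 2×10^6 cells/mL given 10 μM compound for 30 min, heated in aliquots for 3 min across 48°C-58°C, pooled, and extracted in PBS with 0.5% NP-40 at 4°C, and was quantified by TMTpro 16plex LC-MS/MS with equalised channel sums. Thermal stability against control samples, from duplicates, is reported as log2 fold change.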

[2] = compound: NC(=O)c1cnc(N[C@@H]2CCCC[C@@H]2N)nc1Nc1cccc(-n2nccn2)c1
In short: as §1

[3] = compound: NC1(c2ccc(-c3nc4ccn5c(=O)[nH]nc5c4cc3-c3ccccc3)cc2)CCC1
In short: as §1

[4] = compound: NCC(=O)Nc1ccc(-n2nc(C(F)(F)F)cc2-c2ccc3c(ccc4ccccc43)c2)cc1
In short: as §1

entinostat = compound: Nc1ccccc1NC(=O)c1ccc(CNC(=O)OCc2cccnc2)cc1 [entinostat]
In short: as §1

vorinostat = compound: O=C(CCCCCCC(=O)Nc1ccccc1)NO [vorinostat]
In short: as §1

citarinostat = compound: O=C(CCCCCCNC(=O)c1cnc(N(c2ccccc2)c2ccccc2Cl)nc1)NO [citarinostat]
In short: as §1

silmitasertib = compound: O=C(O)c1ccc2c(c1)nc(Nc1cccc(Cl)c1)c1ccncc12 [silmitasertib]
In short: as §1

[5] = compound: O=C1NC(=O)C(c2cnc3ccccn23)=C1c1cn2c3c(cc(F)cc13)CN(C(=O)N1CCCCC1)CC2
In short: as §1

[6] = compound: c1cc(OCCN2CCCCC2)cc(-c2n[nH]c3ccc(-c4nnc[nH]4)cc23)c1
In short: as §1

| Target | log2 fold change [1] | log2 fold change [2] | log2 fold change [3] | log2 fold change [4] | log2 fold change (entinostat) | log2 fold change (vorinostat) | log2 fold change (citarinostat) | log2 fold change (silmitasertib) | log2 fold change [5] | log2 fold change [6] |
| --- | --- | --- | --- | --- | --- | --- | --- | --- | --- | --- |
| TLK1 (UniProt Q9UKI8) | inactive: -0.062 | inactive: -0.074 | inactive: -0.063 | inactive: -0.034 | inactive: 0.042 | inactive: 0.027 | inactive: 0.049 | inactive: -0.002 | inactive: 0.002 | inactive: -0.074 |
| TMED5 (UniProt Q9Y3A6) | inactive: -0.016 | inactive: -0.088 | inactive: -0.094 | inactive: -0.033 | inactive: -0.031 | inactive: 0.125 | inactive: -0.007 | inactive: -0.004 | inactive: 0.062 | inactive: -0.085 |
| TMEM184C (UniProt Q9NVA4) | inactive: -0.185 | inactive: 0.069 | active: -0.401 | inactive: -0.07 | inactive: -0.218 | inactive: 0.08 | inactive: -0.065 | inactive: -0.004 | inactive: -0.055 | inactive: 0.022 |
| TMEM120A (UniProt Q9BXJ8) | inactive: 0.229 | inactive: 0.089 | inactive: 0.058 | inactive: 0.091 | inactive: 0.002 | inactive: 0.1 | inactive: 0.252 | inactive: -0.124 | inactive: 0.185 | inactive: 0.082 |
| TMEM126A (UniProt Q9H061) | inactive: 0.007 | inactive: -0.026 | inactive: -0.043 | inactive: -0.035 | inactive: 0.036 | inactive: 0.07 | inactive: -0.038 | inactive: -0.024 | inactive: -0.08 | inactive: 0.061 |
| TMUB2 (UniProt Q71RG4) | inactive: 0.061 | inactive: 0.059 | inactive: 0 | inactive: -0.007 | inactive: -0.028 | inactive: -0.11 | inactive: 0.003 | inactive: -0.065 | inactive: -0.047 | inactive: -0.047 |
| TMED10 (UniProt P49755) | inactive: -0.053 | inactive: -0.047 | inactive: -0.012 | inactive: 0.035 | inactive: -0.013 | inactive: 0.021 | inactive: -0.04 | inactive: -0.021 | inactive: -0.038 | inactive: 0.006 |
| TMEM223 (UniProt A0PJW6) | inactive: -0.087 | inactive: -0.14 | inactive: -0.1 | inactive: 0.071 | inactive: -0.02 | inactive: 0.096 | inactive: -0.031 | inactive: 0.019 | inactive: 0.05 | inactive: -0.036 |
| TMSB10 (UniProt P63313) | inactive: 0.016 | inactive: 0.087 | inactive: 0.069 | inactive: 0.056 | inactive: 0.091 | inactive: -0.25 | inactive: -0.016 | inactive: -0.063 | inactive: -0.083 | inactive: 0.16 |
| TMX2 (UniProt Q9Y320) | inactive: -0.082 | inactive: -0.117 | inactive: -0.039 | inactive: -0.064 | inactive: 0.015 | inactive: 0.018 | inactive: 0.046 | inactive: -0.002 | inactive: -0.043 | inactive: -0.04 |
| TMEM242 (UniProt Q9NWH2) | inactive: 0.011 | inactive: -0.123 | inactive: -0.011 | inactive: -0.099 | inactive: -0.003 | inactive: -0.058 | inactive: 0.005 | inactive: 0.059 | inactive: 0.016 | inactive: -0.113 |
| TMBIM1 (UniProt Q969X1) | inactive: 0.079 | inactive: -0.229 | inactive: -0.008 | inactive: -0.259 | inactive: 0.062 | inactive: -0.034 | inactive: -0.208 | inactive: 0.067 | inactive: -0.149 | inactive: 0.021 |
| TMEM43 (UniProt Q9BTV4) | inactive: 0.02 | inactive: 0 | inactive: -0.083 | inactive: 0.042 | inactive: 0.013 | inactive: 0.05 | inactive: 0.013 | inactive: 0.022 | inactive: 0.032 | inactive: -0.077 |
| TMEM192 (UniProt Q8IY95) | inactive: 0 | inactive: -0.01 | active: -0.374 | inactive: 0.01 | inactive: -0.017 | inactive: -0.061 | inactive: -0.02 | inactive: 0.037 | inactive: 0.03 | inactive: -0.005 |
| TMEM164 (UniProt Q5U3C3) | inactive: 0.129 | inactive: -0.138 | inactive: -0.006 | inactive: -0.248 | inactive: -0.112 | inactive: 0.139 | inactive: 0.087 | inactive: 0.01 | inactive: -0.004 | inactive: -0.268 |
| TMEM167A (UniProt Q8TBQ9) | inactive: 0.019 | inactive: -0.015 | inactive: 0.005 | inactive: -0.001 | inactive: 0.006 | inactive: -0.037 | inactive: 0.033 | inactive: 0.006 | inactive: 0.013 | inactive: -0.1 |
| TMCC1 (UniProt O94876) | inactive: -0.002 | inactive: -0.04 | inactive: -0.165 | – | inactive: 0.084 | inactive: -0.079 | – | inactive: 0.074 | inactive: 0.098 | – |
| TMEM30A (UniProt Q9NV96) | inactive: -0.07 | inactive: -0.014 | inactive: 0.016 | inactive: -0.015 | inactive: -0.086 | inactive: 0.003 | inactive: 0.023 | inactive: -0.03 | inactive: 0.029 | inactive: -0.002 |
| TMEM68 (UniProt Q96MH6) | inactive: 0.125 | inactive: 0.049 | inactive: -0.021 | inactive: 0.024 | inactive: -0.026 | inactive: -0.012 | inactive: 0.027 | inactive: 0.055 | inactive: -0.028 | inactive: -0.029 |
| TMEM199 (UniProt Q8N511) | inactive: 0.094 | inactive: -0.064 | inactive: -0.033 | inactive: -0.075 | inactive: 0.009 | inactive: -0.066 | inactive: 0.054 | inactive: -0.032 | inactive: -0.078 | inactive: 0.123 |
| TMEM8A (UniProt Q9HCN3) | inactive: -0.059 | – | inactive: -0.393 | inactive: -0.048 | inactive: -0.485 | inactive: -0.077 | inactive: -0.037 | inactive: 0.053 | – | inactive: -0.056 |
| TMEM123 (UniProt Q8N131) | inactive: 0.001 | inactive: -0.04 | inactive: 0.137 | inactive: -0.019 | inactive: 0 | – | inactive: 0.096 | inactive: 0.101 | inactive: 0.017 | inactive: -0.092 |
| TMEM219 (UniProt Q86XT9) | inactive: 0.079 | inactive: 0.033 | – | inactive: 0.036 | inactive: 0.052 | active: 0.389 | – | – | inactive: -0.025 | – |
| TMEM141 (UniProt Q96I45) | inactive: -0.046 | inactive: -0.012 | inactive: 0.043 | inactive: -0.108 | inactive: -0.089 | inactive: 0.021 | inactive: 0.013 | inactive: 0.051 | – | inactive: 0.09 |
| TMEM9 (UniProt Q9P0T7) | inactive: -0.008 | inactive: 0.047 | inactive: -0.113 | inactive: 0.063 | inactive: -0.026 | inactive: -0.053 | inactive: 0.1 | inactive: -0.044 | inactive: -0.031 | inactive: 0.065 |
| TMEM237 isoform 3 (UniProt Q96Q45) | inactive: 0.019 | – | inactive: 0.102 | inactive: 0.26 | inactive: 0.097 | inactive: 0.272 | inactive: 0.05 | inactive: 0.104 | inactive: 0.265 | inactive: -0.148 |
| TMUB1 (UniProt Q9BVT8) | inactive: 0.107 | inactive: 0.057 | inactive: -0.004 | inactive: 0.044 | inactive: 0.006 | inactive: 0.013 | inactive: 0.038 | inactive: -0.073 | inactive: 0.205 | inactive: -0.071 |

Whole records from above. Values in the order: log2 fold change [1]	log2 fold change [2]	log2 fold change [3]	log2 fold change [4]	log2 fold change (entinostat)	log2 fold change (vorinostat)	log2 fold change (citarinostat)	log2 fold change (silmitasertib)	log2 fold change [5]	log2 fold change [6]
TMX2 (UniProt Q9Y320) in the list: inactive: -0.082	inactive: -0.117	inactive: -0.039	inactive: -0.064	inactive: 0.015	inactive: 0.018	inactive: 0.046	inactive: -0.002	inactive: -0.043	inactive: -0.04
TMEM219 (UniProt Q86XT9) in the list: inactive: 0.079	inactive: 0.033	–	inactive: 0.036	inactive: 0.052	active: 0.389	–	–	inactive: -0.025	–
